Test results taken from patent US20100266569A1, “PROSTATIC ACID PHOSPHATASE FOR THE TREATMENT OF PAIN” (priority 2007, published 2010).

Legend:
[1] = tested on: wild-type C57BL/6 male mice; conditions: 50 μg, i.t., single injection, mice (Grant et al., 1995); cited from earlier work
[2] = tested on: wild-type C57BL/6 male mice; conditions: mouse, in vivo
Source text: Signs of immune and microglial activation can be monitored using molecular markers.

[3] = tested on: wild-type C57BL/6 male mice; assay: Noxious thermal sensitivity, Hargreaves method (paw withdrawal latency to radiant heat) after i.t. injection; format: in vivo, mouse; conditions: single i.t. injection, highest dose
Experimental: Behavior. C57BL/6 male mice, 2-3 months old, were purchased from Jackson Laboratories (Bar Harbor, Maine, United States of America) for all behavioral experiments involving PAP protein injections. All mice were acclimated to the testing room, equipment and experimenter for one day before behavioral testing. The experimenter was blind to genotype and drug treatment during behavioral testing.
Thermal sensitivity was measured by heating one hindpaw with a Plantar Test apparatus (IITC) following the Hargreaves method (Hargreaves et al., 1988). The radiant heat source intensity was calibrated so that a paw withdrawal reflex was evoked in ˜10 seconds, on average, in wild-type C57BL/6 mice. Cutoff time was 20 s. One measurement was taken from each paw per day to determine paw withdrawal latency. To perform the tail immersion assay, mice were gently restrained in a towel and the distal one-third of the tail was immersed in 46.5° C. water. Latency to withdrawal the tail was measured once per mouse. Mechanical sensitivity was measured using semi-rigid tips attached to an Electronic von Frey apparatus (IITC) as described elsewhere (Cunha et al., 2004; Inoue et al., 2004). Three measurements were taken from each paw (separated at 5 min. intervals) then averaged to determine paw withdrawal threshold in grams. […]

## CN1CC[C@]23c4c5ccc(O)c4O[C@H]2[C@@H](O)C=C[C@H]3[C@H]1C5.O=S(=O)(O)O [morphine, morphine sulfate]
[1]
  duration of morphine antinociception, previous reports: 4.6 ± 1.0 h
[2]
  mice paralyzed and displaying a Straub tail: three
  mice that died: two
[3]
  duration of antinociception: 5 h
